Laboratory results: PMC8151980
These are yes or no findings as the source states them, for the method shown. In cells and extracts the contact can be indirect. Binding can be weak; no strength is given. For some assays here: Tags and fused reporters may be left off the sequences shown. One block for each molecule: values may come before it.

Amino acid sequences for entries named in this document (tags omitted). A change or cut given only in a name is not applied to a line headed by its entry.
UniProt Q94EH2: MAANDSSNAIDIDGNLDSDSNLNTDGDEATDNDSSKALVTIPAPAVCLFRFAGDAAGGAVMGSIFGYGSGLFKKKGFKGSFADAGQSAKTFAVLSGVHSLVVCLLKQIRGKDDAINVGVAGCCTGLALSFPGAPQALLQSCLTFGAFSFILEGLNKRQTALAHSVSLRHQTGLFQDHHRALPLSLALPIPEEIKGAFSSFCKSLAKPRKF
UniProt Q6NKU9: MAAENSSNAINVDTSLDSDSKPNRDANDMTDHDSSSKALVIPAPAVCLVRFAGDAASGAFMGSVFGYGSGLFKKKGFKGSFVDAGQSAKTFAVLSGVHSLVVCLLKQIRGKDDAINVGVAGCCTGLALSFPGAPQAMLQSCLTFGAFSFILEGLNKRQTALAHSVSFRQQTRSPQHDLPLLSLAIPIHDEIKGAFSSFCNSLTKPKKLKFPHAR

Key:
[1] = target: T1, hexa-histidine-tagged, 35S-methionine-labeled chloroplast envelope quinone oxidoreductase homologue (ceQORH-(His)6) (UniProt Q9SV68); experiment: pull-down; purified 35S-ceQORH-(His)6 incubated 15 min with isolated Arabidopsis chloroplasts at 0.1 mM Mg-GTP and 0.1 mM Mg-ATP; envelope membranes detergent-solubilized (2% Triton X100, 300 mM NaCl, 20 mM imidazole); import intermediate-associated proteins purified by Ni-NTA chromatography, separated by 1D or 2D SDS-PAGE, Coomassie-stained and identified by protein sequencing; only the target purified
T1 sequence (chain, 35S-methionine-labeled): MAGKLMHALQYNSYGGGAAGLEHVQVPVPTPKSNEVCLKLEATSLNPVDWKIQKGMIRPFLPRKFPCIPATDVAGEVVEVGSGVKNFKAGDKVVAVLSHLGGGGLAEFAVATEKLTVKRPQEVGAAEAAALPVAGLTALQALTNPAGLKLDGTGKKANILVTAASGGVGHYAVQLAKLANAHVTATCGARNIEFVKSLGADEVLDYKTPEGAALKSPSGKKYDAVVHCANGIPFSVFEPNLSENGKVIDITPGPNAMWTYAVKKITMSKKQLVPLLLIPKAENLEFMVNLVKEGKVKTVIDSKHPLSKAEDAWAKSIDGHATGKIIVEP

[2] = target: T2, HP65b (At5g55220) (Arabidopsis thaliana (endogenous in isolated chloroplasts)) (UniProt Q8S9L5); experiment: co-IP; maltoside-solubilized chloroplast envelope protein extracts (HP22-(His)6-containing complexes); precipitated with antibody against HP65b; Western blot; only the binder purified
T2 sequence: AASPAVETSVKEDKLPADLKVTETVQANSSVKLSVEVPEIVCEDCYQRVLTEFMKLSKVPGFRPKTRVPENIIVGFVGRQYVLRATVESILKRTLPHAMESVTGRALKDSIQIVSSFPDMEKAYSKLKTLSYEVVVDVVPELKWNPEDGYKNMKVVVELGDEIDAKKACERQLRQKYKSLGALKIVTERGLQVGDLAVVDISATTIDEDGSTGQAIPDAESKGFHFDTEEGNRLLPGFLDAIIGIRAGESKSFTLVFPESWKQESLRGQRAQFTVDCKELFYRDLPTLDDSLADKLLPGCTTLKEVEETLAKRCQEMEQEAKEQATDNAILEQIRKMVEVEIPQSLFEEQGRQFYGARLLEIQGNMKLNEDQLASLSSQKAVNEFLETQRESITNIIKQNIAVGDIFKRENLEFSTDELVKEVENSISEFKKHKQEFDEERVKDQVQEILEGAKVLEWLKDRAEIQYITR

[3] = target: hexa-histidine-tagged HP20 (HP20-(His)6), At4g26670 (Arabidopsis thaliana) (UniProt Q94EH2); experiment: co-IP; maltoside-solubilized chloroplast envelope protein extracts (HP20-(His)6-containing complexes); precipitated with antibodies against HP20; Western blot; only the target purified
[4] = target: hexa-histidine-tagged HP22 (HP22-(His)6), At5g55510 (Arabidopsis thaliana) (UniProt Q6NKU9); experiment: pull-down; purified HP22-(His)6 imported into chloroplasts from 5 weeks-old plants (0.1 mM Mg-GTP, 2.5 mM Mg-ATP, 15 min); envelope protein complexes purified from ruptured chloroplasts, separated by SDS-PAGE, bands identified by manual or automated sequencing; only the target purified

Molecule: cpHSC70
binding [1]: binds

Molecule: hexa-histidine-tagged HP22 (HP22-(His)6), At5g55510 (from UniProt Q6NKU9)
binding [2]: binds

The remaining lines, values ahead:

binding [3]: binds
B1: HP30 (At3g49560) (protein, UniProt Q9SCK3 1-261)
chain: MVVGGGGEGDQKRSSGEMMAMASLFNDQQNPIQQFQVKFKEVETNFKTWLSKQSIPVEAAVVSTMSGVQGAFIGGLMGTLSPEMPQAGVDPQAIASMKQAQALVGGPWVQARNFAAITGVNAGIASVMKRIRGKEDIESAVVAALGSGFAYSLVSQGLQGQPMNAITTAAGFAVFQGVFFKLGERFSKPSTEDPFFTRGRTMLVKLGLEKYEKNFKKGLLTDPTLPLLTDSALKDANIPPGPRLMILDHIQRDPEIKGKRK

binding [3]: no binding
binding [4]: binds
B2: HP65b (At5g55220) (protein, UniProt Q8S9L5 78-547)
chain: AASPAVETSVKEDKLPADLKVTETVQANSSVKLSVEVPEIVCEDCYQRVLTEFMKLSKVPGFRPKTRVPENIIVGFVGRQYVLRATVESILKRTLPHAMESVTGRALKDSIQIVSSFPDMEKAYSKLKTLSYEVVVDVVPELKWNPEDGYKNMKVVVELGDEIDAKKACERQLRQKYKSLGALKIVTERGLQVGDLAVVDISATTIDEDGSTGQAIPDAESKGFHFDTEEGNRLLPGFLDAIIGIRAGESKSFTLVFPESWKQESLRGQRAQFTVDCKELFYRDLPTLDDSLADKLLPGCTTLKEVEETLAKRCQEMEQEAKEQATDNAILEQIRKMVEVEIPQSLFEEQGRQFYGARLLEIQGNMKLNEDQLASLSSQKAVNEFLETQRESITNIIKQNIAVGDIFKRENLEFSTDELVKEVENSISEFKKHKQEFDEERVKDQVQEILEGAKVLEWLKDRAEIQYITR
